The other results are listed elsewhere or left out.

The target in the assay is T1, OsSMF1 (Oryza sativa, UniProt Q6ZLB0 1-436).
T1 sequence: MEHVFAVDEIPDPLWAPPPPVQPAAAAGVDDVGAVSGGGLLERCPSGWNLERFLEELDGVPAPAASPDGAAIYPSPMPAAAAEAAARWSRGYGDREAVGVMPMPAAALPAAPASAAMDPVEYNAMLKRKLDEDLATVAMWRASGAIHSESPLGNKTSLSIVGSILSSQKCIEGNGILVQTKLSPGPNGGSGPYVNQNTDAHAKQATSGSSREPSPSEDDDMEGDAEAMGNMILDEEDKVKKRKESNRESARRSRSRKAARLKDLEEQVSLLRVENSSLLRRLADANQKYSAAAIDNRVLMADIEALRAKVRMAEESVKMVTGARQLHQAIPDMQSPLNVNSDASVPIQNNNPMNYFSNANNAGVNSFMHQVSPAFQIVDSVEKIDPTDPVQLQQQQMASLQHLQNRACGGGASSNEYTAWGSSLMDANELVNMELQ
As to the kind of experiment: protein-binding microarray (RPBM); PBS, 2% BSA, 51.3 ng/ul salmon testes DNA, 50 uM zinc acetate, 200 nM TF, 25 C, 1 h; high values mean tight binding. The settings on record: protein: recombinant; tags: N-terminal polyhistidine and DsRed monomer fusion (pET32a); chain copies: 2; label: CyDye5-dUTP incorporated in the synthesized complementary strand; 3' TTTTT single-stranded linker to array surface; dsDNA, one strand shown. In outline:
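Ni–NTA purification followed expression in E. coli BL21-CodonPlus of transcription factors fused N-terminally to a polyhistidine tag and DsRed. At 200 nM in PBS with 2% BSA, salmon testes DNA and 50 µM zinc acetate, the protein was incubated for 1 h at 25 °C with a custom Agilent array that had been primer-extended with Cy5-dUTP and blocked with 2% BSA. After washing, the array was read on an Axon 4000B scanner. The binding signal is per-feature fluorescence intensity in arbitrary units.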
For the sequence “TCGTCGCACGACCAGACCAGCAGCACCAACTCCCTTTCTGCGGAGTCACCTAGTGCAG”, the binding signal is 3160 fluorescence intensity (a.u.).
The figure for “TAGTTTGATTCTCGTGACACATAGGGCGACCTAAGCTTATCGGAGTCACCTAGTGCAG” is 3660 fluorescence intensity (a.u.).
The figure for “ATCTTGGATGGGATAACAAGTACTTTAACTGAGGCCGAGTCGGAGTCACCTAGTGCAG” is 21700 fluorescence intensity (a.u.); for “TTCGATCATTTCGTACTGTACGTGGCACATCATGTGTCATCGGAGTCACCTAGTGCAG” it is 12300 fluorescence intensity (a.u.).
On to “CTTTCTCTGTTGATCTTCTCGTGGTGGGTGACTGTGTCAACGGAGTCACCTAGTGCAG”, for which the binding signal is 5210 fluorescence intensity (a.u.).
For “GTCTGTTGCTGTGTTGGACAAGTTTTGTCTGAAAATCGCCCGGAGTCACCTAGTGCAG” the value was 3250 fluorescence intensity (a.u.).
With “TTTAGTCCCGGTTGGTGTTACCAACCGGGACTAAAGATCCCGGAGTCACCTAGTGCAG”, the binding signal was 23300 fluorescence intensity (a.u.).
Regarding “CCGGTATCCACTGCGTGCGTGCGTTGCCTGCTAGAATCCCCGGAGTCACCTAGTGCAG”, the binding signal was 3820 fluorescence intensity (a.u.).
In the case of “TATTTGTTCGTGACTCTACACTTCTTTTGCCTATTCATCTCGGAGTCACCTAGTGCAG”, the binding signal is 4670 fluorescence intensity (a.u.).
The figure for “TCCGTATGAAATAGTGTCTCCGTCAGATTGGGGAAGCGGGCGGAGTCACCTAGTGCAG” is 3200 fluorescence intensity (a.u.); for “GCTGCTAGTAGGCTAATTTCTGCAGTGTGTGTGTGTGTGTCGGAGTCACCTAGTGCAG” it is 3970 fluorescence intensity (a.u.); for “ACAACTCACATGGGACATGGCATGTCCTCTCAAACCTTTACGGAGTCACCTAGTGCAG” it is 4890 fluorescence intensity (a.u.).
The figure for “AGAGGAGAGCCCTCAGCCTCTCCGTCACCCTCATCCTTGTCGGAGTCACCTAGTGCAG” is 3430 fluorescence intensity (a.u.).
For “CGTCGTGGAACCACCCGTCGCCCACGTAGGACACGCCCCTCGGAGTCACCTAGTGCAG” the value was 6530 fluorescence intensity (a.u.); for “ATCCTTTTGCTTATGGTTATGCTTATCTGTATGGCTTATTCGGAGTCACCTAGTGCAG”, 3650 fluorescence intensity (a.u.).
For “CGAAAGGTTTCCAGGTACAAGCAACCATAGAGCCAAATCGCGGAGTCACCTAGTGCAG”, the binding signal was 38300 fluorescence intensity (a.u.).
“AAGAGATACACTTTCAAACCATGACGCTATTTTACCTCACCGGAGTCACCTAGTGCAG”: the binding signal is 3660 fluorescence intensity (a.u.).
For “GCACCTCATGCAGGGACGACATGGACACGTCACCACTTGACGGAGTCACCTAGTGCAG” the value was 24600 fluorescence intensity (a.u.); for “ACGACGACGACGTCGACGTGTGAACCAGTCAACTGCCACGCGGAGTCACCTAGTGCAG”, 8590 fluorescence intensity (a.u.).
Regarding “GCCATGATCAGTCGCGTCCGCGTCCGCGTCCGCCGCTCGCCGGAGTCACCTAGTGCAG”, the binding signal was 3640 fluorescence intensity (a.u.).
For “CGGTCGTAGCCACTGGCGCGCCTTAGTCAGCGCGTGGGGCCGGAGTCACCTAGTGCAG” the value was 7010 fluorescence intensity (a.u.); for “TTGCCGGTACTTTGGTACGTCATCCGTGTATAAGTCGGTTCGGAGTCACCTAGTGCAG”, 5840 fluorescence intensity (a.u.).
For “AACCCAACCCAACTCACTTCACGGCCCATCATCCCACACTCGGAGTCACCTAGTGCAG” the value was 3380 fluorescence intensity (a.u.); for “TCTCTTCTTTATGCCAACTGGCAATGGCATCCTCCAATCCCGGAGTCACCTAGTGCAG”, 5270 fluorescence intensity (a.u.).
For “GGGCACGCGAGCTGCTCGACACGTCGCTCGCTCTCCAGATCGGAGTCACCTAGTGCAG” the value was 4620 fluorescence intensity (a.u.).
For the sequence “GTCCCTTAATAGCTCGAGAAGTGTCTCCACGATGACGGGGCGGAGTCACCTAGTGCAG”, the binding signal was 5400 fluorescence intensity (a.u.).
The figure for “CAAATGTTGACACCTAGCTCTCACCATGCCACCTCAACTTCGGAGTCACCTAGTGCAG” is 6030 fluorescence intensity (a.u.); for “AGGCGATCGATTCCTGGACACTCGCGCCACGCCACCCCACCGGAGTCACCTAGTGCAG” it is 5700 fluorescence intensity (a.u.).
The figure for “GGGCGTGGTGGTGGTGGTGGTGGTTATACGGTTTTCGGTTCGGAGTCACCTAGTGCAG” is 4400 fluorescence intensity (a.u.).
For the sequence “GGAGCGCCCGCCTTATGGTCTCGGCGCTGTCGTGGCGCGGCGGAGTCACCTAGTGCAG”, the binding signal is 3430 fluorescence intensity (a.u.).
For “CTTGCTGCAGCCACACAAAGAAAGAGTGACTCATCGTTTACGGAGTCACCTAGTGCAG” the value was 5800 fluorescence intensity (a.u.); for “TAAAATAGTCCTTCCACAGTGGGGCTGCTTGGGCTTGTGTCGGAGTCACCTAGTGCAG”, 23400 fluorescence intensity (a.u.); for “TTCCGGTGATGTCCTTCTTCTTGGCGCTCCTACTAAGGCACGGAGTCACCTAGTGCAG”, 23800 fluorescence intensity (a.u.).
For “TGCTGCTCTTGACACCACGTCGTTGCTGCCCTGCTTCCACCGGAGTCACCTAGTGCAG” the value was 3810 fluorescence intensity (a.u.); for “AGCAGACTCCACGTCGTCACCAACTTCCTTCCTCCTGGTCCGGAGTCACCTAGTGCAG”, 11300 fluorescence intensity (a.u.); for “AGGGGCGGAGGGCAGCGATTTTGGTTGGTAGTAGTACGGGCGGAGTCACCTAGTGCAG”, 3610 fluorescence intensity (a.u.).
For the sequence “GTCATGTGATTGATGATTCAGCATCCCTTGAGGCTCAGTGCGGAGTCACCTAGTGCAG”, the binding signal is 6080 fluorescence intensity (a.u.).
Consider “ATTTAATAAGCTTCATCAATTTCGTGTGGAGGCCCACGCTCGGAGTCACCTAGTGCAG”, for which the binding signal is 3250 fluorescence intensity (a.u.).
For “TGTGCCTTCATAGGGTTGAGTCTACGTGTGTTGTGAGTGACGGAGTCACCTAGTGCAG” the value was 3560 fluorescence intensity (a.u.); for “CTAATCATGGATTAATTAGGCTCAATAGATTCGTCTCACGCGGAGTCACCTAGTGCAG”, 16900 fluorescence intensity (a.u.); for “GGCTGGTGGTTTGTTGATGTGGAGCCCGGCCCGGCCGCACCGGAGTCACCTAGTGCAG”, 4310 fluorescence intensity (a.u.).
The figure for “CGACACCTTCGTCTCCACGCTGAGTCGCTGACCACCATGGCGGAGTCACCTAGTGCAG” is 3900 fluorescence intensity (a.u.).

The record behind these values is publication PMC7819943, “Rice protein-binding microarrays: a tool to detect cis-acting elements near promoter regions in rice”.
